# Results: the supplement of paper PMC4604168 (melanoma cell lines)
# The other results are listed elsewhere or left out. Repeats are few or missing, and single values can be far off.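 Cells were imaged in 1,536-well plates, and nuclei stained with an antibody against cleaved PARP were counted against all DNA-stained nuclei to give the apoptosis fraction. Screening doses were chosen to leave most cells alive, and resting and induced cleaved-PARP levels differ strongly between cell lines.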
# Tests used:
# Test in all cases: cleaved PARP positive nuclei fraction relative to DMSO control; melanoma cells; higher = more apoptosis
# Details in all cases: library dose: low library concentration; 72 h
# 501Mel = system: 501Mel
# A101D = system: A101D
# A2058 = system: A2058
# C32 = system: C32
# CBRC008 = system: CBRC008 (line from a melanoma biopsy)
# CBRC014 = system: CBRC014 (line from a melanoma biopsy)
# CBRC016 = system: CBRC016 (line from a melanoma biopsy)
# CBRC017 = system: CBRC017 (line from a melanoma biopsy)
# A375 = system: A375
# CBRC013 = system: CBRC013 (line from a melanoma biopsy)
Structure (SMILES),cleaved PARP positive nuclei fraction (501Mel) [%],cleaved PARP positive nuclei fraction (A101D) [%],cleaved PARP positive nuclei fraction (A2058) [%],cleaved PARP positive nuclei fraction (C32) [%],cleaved PARP positive nuclei fraction (CBRC008) [%],cleaved PARP positive nuclei fraction (CBRC014) [%],cleaved PARP positive nuclei fraction (CBRC016) [%],cleaved PARP positive nuclei fraction (CBRC017) [%],cleaved PARP positive nuclei fraction (A375) [%],cleaved PARP positive nuclei fraction (CBRC013) [%]
"CC(=O)c1c(C)c2cnc(Nc3ccc(N4CCNCC4)cn3)nc2n(C2CCCC2)c1=O [palbociclib] + COc1ccc(-c2ccc3c(N4CCOCC4)nc(N4C[C@@H](C)O[C@@H](C)C4)nc3n2)cc1CO [KU0063794] (first compound 0.04 µM, partner dose 0.02 µM)",332,32.5,138,210,63.5,101,124,76.4,,
"OCc1c[nH]c2ccccc12 [Indole-3-carbinol] + COc1ccc(COc2ccc(Cc3cnc(N)nc3N)cc2OC)cc1 [GW2580] (first compound 0.8 µM, partner dose 1 µM)",67.4,67.2,79.5,151,244,103,82,86.8,,
"OCc1c[nH]c2ccccc12 [Indole-3-carbinol] + COc1ccc2c(c1)CCC1C2CCC2(C)C(NCCCCCCN3C(=O)C=CC3=O)CCC12 [U73122] (first compound 0.8 µM, partner dose 0.4 µM)",40.5,9.46,105,40.4,122,94.5,79.5,97.5,,
"C=CCNC1=C2C[C@@H](C)C[C@H](OC)[C@H](O)[C@@H](C)/C=C(\C)[C@H](OC(N)=O)[C@@H](OC)/C=C\C=C(/C)C(=O)NC(=CC1=O)C2=O [Tanespimycin] + Cc1cc([N+](=O)[O-])ccc1NS(=O)(=O)c1cc(Cl)ccc1Cl [FH535] (first compound 0.002 µM, partner dose 1 µM)",57.9,34.2,42.7,525,532,156,433,186,,
"OCc1c[nH]c2ccccc12 [Indole-3-carbinol] + CCN(CC)CCCCNc1ncc2cc(-c3cc(OC)cc(OC)c3)c(NC(=O)NC(C)(C)C)nc2n1 [PD173074] (first compound 0.8 µM, partner dose 0.1 µM)",186,33.4,174,75.5,82.5,81.9,95,99.8,,
"O=C(CCCCCCC(=O)Nc1ccccc1)NO [vorinostat] + Cc1ccc(NC(=O)c2cccc(N(C)C)c2)cc1NC(=O)c1ccc(O)cc1 [ZM336372] (first compound 0.08 µM, partner dose 2 µM)",,93.3,80,124,75.7,102,224,129,74.4,97.2
"Clc1ccc(Nc2nnc(Cc3ccncc3)c3ccccc23)cc1 [vatalanib] + Cn1cc(/C=C2\C(=O)Nc3cccnc32)c2ccccc21 [GW441756] (first compound 2 µM, partner dose 0.4 µM)",95.2,149,51.4,66.8,163,196,115,102,,
"OCc1c[nH]c2ccccc12 [Indole-3-carbinol] + COc1ccc(-c2ccc3c(N4CCOCC4)nc(N4C[C@@H](C)O[C@@H](C)C4)nc3n2)cc1CO [KU0063794] (first compound 0.8 µM, partner dose 0.02 µM)",159,33.1,79.6,537,81.2,97.6,116,76.3,,
"O=C(CCCCCCC(=O)Nc1ccccc1)NO [vorinostat] + OCCn1cc(-c2cnc3nnn(Cc4ccc5ncccc5c4)c3n2)cn1 [PF04217903] (first compound 0.08 µM, partner dose 1 µM)",,168,210,40.6,40.6,98.6,80.3,133,103,65.8
"OCc1c[nH]c2ccccc12 [Indole-3-carbinol] + O=C1NC(=O)/C(=C/c2ccc(-c3ccc(F)cc3O)o2)S1 [AS252424] (first compound 0.8 µM, partner dose 1 µM)",78,24,137,81.6,98.3,91.4,103,73.2,,
"C=CCNC1=C2C[C@@H](C)C[C@H](OC)[C@H](O)[C@@H](C)/C=C(\C)[C@H](OC(N)=O)[C@@H](OC)/C=C\C=C(/C)C(=O)NC(=CC1=O)C2=O [Tanespimycin] + O=C(Nc1cccc(Cl)c1)Nc1ncc(CCNc2ncnc3ccsc23)s1 [SNS314] (first compound 0.002 µM, partner dose 0.0008 µM)",,164,38.8,186,234,80.4,50.7,107,120,154
